Data taken from patent US4923963A, “Bradykinin antagonist peptides” (Nova Technology Limited Partnership, priority 1987, dated 1990).
Part of at least one peptide drawing is inferred or uncertain, most often the ends. Square brackets hold non-standard residues; d marks the D form. Peptide text beside a SMILES is read from it. Hyp = O=C(O)[C@@H]1C[C@@H](O)CN1; 2Thi = N[C@@H](Cc1cccs1)C(=O)O

Assays:
[1] = test system: isolated guinea pig ileum; format: cell-based; design: scale not given here; settings: not quantitated
Protocol: (§1) The bradykinin antagonists were assayed on isolated rat uterus in natural or induced estrus and on guinea pig ileum, according to the commonly accepted assay methods for bradykinin and related kinins as described by Trautschold (Handbook of Expt. Pharmacol. Vol 25, Springer Verlag, pp. 53-55, 1970) for inhibition of the myotropic activity of bradykinin. The inhibition potencies, as determined according to the commonly accepted manner described by Schild for antagonists of biologically active compounds (Br. J. Pharmacol. 2:189, 1947), and expressed as pA2 values are determined on isolated rat uterus (RUT) and isolated guinea pig ileum (GPI). In the assays, a dose-response curve is determined for the reference substance bradykinin. The dose of bradykinin which produced a half maximal contraction of tissue is the ED50 dose. An amount of bradykinin equivalent to twice the ED50 dose is administered to the tissue 30 seconds after the start of incubation of the tissue with a dose of antagonist. Doses of antagonist are increased in this protocol until pre-incubation with a dose of antagonist reduces the contraction in response to the double ED50 dose of bradykinin to response of a single ED50 dose of bradykinin. The pA2 value represents the negative logarithm of the molar concentration of antagonist necessary to reduce the response of a double ED50 dose of bradykinin to that of an ED50 dose. One unit of pA2 value represents an order of magnitude change in potency. For comparison, the negative log of the dose of BK, the dose which causes half maximal contraction of the tissues, is commonly known as the pD2 value. The pD2 value for bradykinin is 7.9 on the rat uterus and 7.4 on the guinea pig ileum.

isolated rat uterus = format: cell-based; settings: not quantitated
Protocol: as §1

rat blood pressure = assay: effects on blood pressure in the anesthetized rat (RBP), intraaortic and intravenous bolus; format: in vivo; design: scale not given here; settings: for RBP-IA: activity class: intraaortic bolus; for RBP-IV: activity class: intravenous bolus
Protocol: The in vivo effects of bradykinin antagonists on blood pressure in the anesthetized rat are determined according to the assay described by Roblero, Ryan and Stewart (Res. Commun. Pathol. Pharmacol. 6:207, 1973). The antagonists also produce inhibition of the bradykinin response when injected as a bolus admixture of bradykinin plus antagonist by either the ia or iv route of administration.

Row | Compound | pA2 /GPI: activity class [1] | pA2 /RUT: activity class (isolated rat uterus) | RBP-IA: activity class (rat blood pressure) | RBP-IV: activity class (rat blood pressure)
1 | N=C(N)NCCC[C@H](NC(=O)[C@H](Cc1cccs1)NC(=O)[C@@H](Cc1ccccc1)NC(=O)[C@H](CO)NC(=O)[C@H](Cc1cccs1)NC(=O)CNC(=O)[C@@H]1CCCN1C(=O)[C@@H]1CCCN1C(=O)[C@@H](N)CCCNC(=N)N)C(N)=O [Example 51, Arg-Pro-Pro-Gly-Thi-Ser-DPhe-Thi-Arg-NH2] (H-RPPG[2Thi]S[dF][2Thi]R-NH2) | 0 |  |  | 
2 | CC[C@@H](C)[C@@H](NC(=O)[C@H](CCCNC(=N)N)NC(=O)[C@H](Cc1cccs1)NC(=O)[C@@H](Cc1ccccc1)NC(=O)[C@H](CO)NC(=O)[C@H](Cc1cccs1)NC(=O)CNC(=O)[C@@H]1CCCN1C(=O)[C@@H]1CCCN1C(=O)[C@@H](N)CCCNC(=N)N)C(=O)N[C@@H](Cc1ccc(O)cc1)C(=O)O [Example 71, Arg-Pro-Pro-Gly-Thi-Ser-DPhe-Thi-Arg-DIle-Tyr] (H-RPPG[2Thi]S[dF][2Thi]R[dI]Y-OH) | 0 | 0 |  | 
3 | CC[C@H](C)[C@H](NC(=O)[C@H](CCCNC(=N)N)NC(=O)[C@H](Cc1ccccc1)NC(=O)[C@@H](Cc1ccccc1)NC(=O)[C@H](CO)NC(=O)[C@H](Cc1ccccc1)NC(=O)CNC(=O)[C@@H]1CCCN1C(=O)[C@@H]1CCCN1C(=O)[C@H](CCCNC(=N)N)NC(=O)[C@H](N)CCCNC(=N)N)C(=O)N[C@@H](Cc1ccc(O)cc1)C(=O)O [Example 64, DArg-Arg-Pro-Pro-Gly-Phe-Ser-DPhe-Phe-Arg-Ile-Tyr] (H-[dR]RPPGFS[dF]FRIY-OH) |  |  | 0 | 0
4 | N=C(N)NCCC[C@H](N)C(=O)N1CCC[C@H]1C(=O)N1CCC[C@H]1C(=O)NCC(=O)N[C@@H](Cc1cccs1)C(=O)N[C@@H](CO)C(=O)N[C@H](Cc1ccccc1)C(=O)N[C@@H](Cc1cccs1)C(=O)N[C@H](CCCNC(=N)N)C(N)=O [Example 55, Arg-Pro-Pro-Gly-Thi-Ser-DPhe-Thi-DArg-NH2] (H-RPPG[2Thi]S[dF][2Thi][dR]-NH2) | 0 |  |  | 
5 | CC[C@H](C)[C@H](NC(=O)[C@H](CCCNC(=N)N)NC(=O)[C@H](Cc1cccs1)NC(=O)[C@@H](Cc1ccccc1)NC(=O)[C@H](CO)NC(=O)[C@H](Cc1cccs1)NC(=O)CNC(=O)[C@@H]1C[C@@H](O)CN1C(=O)[C@@H]1CCCN1C(=O)[C@@H](N)CCCNC(=N)N)C(=O)N[C@@H](Cc1ccc(O)cc1)C(=O)O [Example 67, Arg-Pro-Hyp-Gly-Thi-Ser-DPhe-Thi-Arg-Ile-Tyr] (H-RP[Hyp]G[2Thi]S[dF][2Thi]RIY-OH) | 0 |  | 0 | 0
6 | CC[C@@H](C)[C@@H](NC(=O)[C@H](CCCNC(=N)N)NC(=O)[C@H](Cc1ccccc1)NC(=O)[C@@H](Cc1ccccc1)NC(=O)[C@H](CO)NC(=O)[C@H](Cc1ccccc1)NC(=O)CNC(=O)[C@@H]1CCCN1C(=O)[C@@H]1CCCN1C(=O)[C@@H](N)CCCNC(=N)N)C(=O)N[C@@H](Cc1ccc(O)cc1)C(=O)O [Example 69, Arg-Pro-Pro-Gly-Phe-Ser-DPhe-Phe-Arg-DIle-Tyr] (H-RPPGFS[dF]FR[dI]Y-OH) | 0 | 0 |  | 
7 | N=C(N)NCCC[C@H](NC(=O)[C@H](Cc1cccs1)NC(=O)[C@@H](Cc1ccccc1)NC(=O)[C@H](CO)NC(=O)[C@H](Cc1cccs1)NC(=O)CNC(=O)[C@@H]1CCCN1C(=O)[C@@H]1CCCN1C(=O)[C@H](CCCNC(=N)N)NC(=O)[C@H](CCCCN)NC(=O)[C@@H](N)CCCCN)C(N)=O [Example 54, Lys-Lys-Arg-Pro-Pro-Gly-Thi-Ser-DPhe-Thi-Arg-NH2] (H-KKRPPG[2Thi]S[dF][2Thi]R-NH2) | 0 |  |  | 
8 | CC[C@@H](C)[C@@H](NC(=O)[C@H](CCCNC(=N)N)NC(=O)[C@H](Cc1ccccc1)NC(=O)[C@@H](Cc1ccccc1)NC(=O)[C@H](CO)NC(=O)[C@H](Cc1ccccc1)NC(=O)CNC(=O)[C@@H]1CCCN1C(=O)[C@@H]1CCCN1C(=O)[C@H](CCCNC(=N)N)NC(=O)[C@H](N)CCCNC(=N)N)C(=O)N[C@@H](Cc1ccc(O)cc1)C(=O)O [Example 70, DArg-Arg-Pro-Pro-Gly-Phe-Ser-DPhe-Phe-Arg-DIle-Tyr] (H-[dR]RPPGFS[dF]FR[dI]Y-OH) | 0 |  | 0 | 0
9 | N=C(N)NCCC[C@H](NC(=O)[C@H](CCCCN)NC(=O)[C@@H](N)CCCCN)C(=O)N1CCC[C@H]1C(=O)N1CCC[C@H]1C(=O)NCC(=O)N[C@@H](Cc1cccs1)C(=O)N[C@@H](CO)C(=O)N[C@H](Cc1ccccc1)C(=O)N[C@@H](Cc1cccs1)C(=O)N[C@H](CCCNC(=N)N)C(N)=O [Example 58, Lys-Lys-Arg-Pro-Pro-Gly-Thi-Ser-DPhe-Thi-DArg-NH2] (H-KKRPPG[2Thi]S[dF][2Thi][dR]-NH2) | 0 |  |  | 
10 | N=C(N)NCCC[C@H](NC(=O)[C@H](CCCCN)NC(=O)[C@@H](N)CCCCN)C(=O)N1CCC[C@H]1C(=O)N1CCC[C@H]1C(=O)NCC(=O)N[C@@H](Cc1cccs1)C(=O)N[C@@H](CO)C(=O)N[C@H](Cc1ccccc1)C(=O)N[C@@H](Cc1cccs1)C(=O)N[C@H](CCCNC(=N)N)C(=O)O [Example 44, Lys-Lys-Arg-Pro-Pro-Gly-Thi-Ser-DPhe-Thi-DArg] (H-KKRPPG[2Thi]S[dF][2Thi][dR]-OH) | 0 | 0 |  | 
11 | CC[C@@H](C)[C@@H](NC(=O)[C@H](CCCNC(=N)N)NC(=O)[C@H](Cc1cccs1)NC(=O)[C@@H](Cc1ccccc1)NC(=O)[C@H](CO)NC(=O)[C@H](Cc1cccs1)NC(=O)CNC(=O)[C@@H]1C[C@@H](O)CN1C(=O)[C@@H]1CCCN1C(=O)[C@@H](N)CCCNC(=N)N)C(=O)N[C@@H](Cc1ccc(O)cc1)C(=O)O [Example 73, Arg-Pro-Hyp-Gly-Thi-Ser-DPhe-Thi-Arg-DIle-Tyr] (H-RP[Hyp]G[2Thi]S[dF][2Thi]R[dI]Y-OH) | 0 |  | 0 | 0
